From PubChem BioAssay AID2685 (National Center for Advancing Translational Sciences (NCATS), 2010)
This is one part of the list. The main result of the screen is listed elsewhere. These columns were measured beside it and carry no call. The list favours compounds with an active or inconclusive main result. Potencies come from curve fits of mixed quality, noted in brackets.

Assay: qHTS Assay for Lipid Storage Modulators in Drosophila S3 Cells;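 as to cell number change: cells counted by Cell Tracker Red CMTPX staining in the red channel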
Conditions: BODIPY lipid droplet fluorescence, 18-24 h; for cell number change: measured here: cell count max response, cells fed with added oleic acid
Method in brief: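 Drosophila S3 cells got compounds at several concentrations plus oleic acid (400 uM solution). Laser-scanning cytometry with 488 nm excitation read lipid droplets at 500-530 nm and cells at 575-640 nm. Percent activity was relative to 20 uM Triacsin C.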

[1] = measured here: cell number channel AC50, cells fed with added oleic acid
[2] = measured here: lipid fluorescence (Fed channel) AC50, cells fed with added oleic acid

| SMILES | cell number change | AC50 [1] | AC50 [2] |
| --- | --- | --- | --- |
| Oc1ccc(O)c(-c2cnns2)c1 | 39.5% | 18.4 µM [rising, single point] | 5.17 µM [rising, partial curve] |
| Cc1nn(C(C)(C)C)c(OC(=O)c2ccc(Br)o2)c1Sc1ccccc1 | 1.03% | 1.16 µM [falling, full curve, poor fit] | 0.116 µM [falling, full curve] |
| Cc1nc(NC(=O)c2c(-c3ccccc3Cl)noc2C)sc1C | -9.83% | – | 9.2 µM [falling, single point] |
| CCCCNC(=S)Nc1ccc2nc3n(c(=O)c2c1)CCCCC3 | -20.5% | – | 0.82 µM [falling, single point] |
| CC(NC(=O)CSc1nnc(-c2cc3cc(Cl)ccc3o2)n1C)c1ccccc1 (stereo unspecified) | -8.16% | – | 29.1 µM [falling, single point] |
| OCCC1CN(Cc2ccc(Oc3ncccn3)cc2)CCN1Cc1ccc(F)c(F)c1 (stereo unspecified) | -1.29% | 3.66 µM [rising, single point] | – |
| COc1ccc(NS(=O)(=O)c2cccc(C(=O)NNC(=O)c3ccc(=O)[nH]c3)c2)cc1 | -3.23% | – | 2.91 µM [rising, single point] |
| CCC(C(=O)Nc1cccnc1)n1c(=O)[nH]c2ccccc2c1=O (stereo unspecified) | – | – | 29.1 µM [falling, single point] |
| CCCN1CCc2nc(SCC(=O)Nc3ccc(C)c(Cl)c3)[nH]c(=O)c2C1 | -2.59% | – | 29.1 µM [falling, single point] |
| O=C(Cc1cccc2ccccc12)Nc1ccc2c(c1)C(=O)NC2=O | 5.86% | – | 0.116 µM [rising, full curve, poor fit] |
| Cc1ccc(-c2nnn(CC(=O)NC3CCN(Cc4ccccc4)CC3)n2)cc1 | -20.8% | – | 18.4 µM [falling, single point] |
| CC(Oc1ccc(Cl)cc1Cl)C(=O)NCCC1=CCCCC1 (stereo unspecified) | -11.1% | 0.13 µM [rising, full curve, poor fit] | – |
| Cc1ccc(C)c(OCC(=O)Nn2c(C)nc3ccccc3c2=O)c1 | 14.9% | – | 10.3 µM [rising, partial curve] |
| CC(=O)N1CCc2ccc(NC(=O)c3c(-c4c(Cl)cccc4Cl)noc3C)cc21 | 0.192% | 5.8 µM [falling, partial curve] | 1.84 µM [falling, partial curve] |
| CC(C)NC(=O)NC(=O)COC(=O)c1ncc(Cl)c(Cl)c1Cl | -11.3% | 0.00461 µM [falling, full curve, poor fit] | – |
| COc1ccc(CNC(=O)[C@H](C)NC(=O)C2CC(=O)N(c3ccc4c(c3)OCO4)C2)cc1 (stereo partly specified) | 75.9% | 29.1 µM [rising, single point] | – |
| O=C(COc1nnnc2ccccc12)N1CCCc2ccccc21 | -24.2% | 0.146 µM [falling, full curve, poor fit] | 6.51 µM [falling, single point] |
| CCOc1ccccc1C(=O)N1CCN(c2ccc(C(F)(F)F)cn2)CC1 | 41.9% | 13 µM [rising, partial curve] | 13 µM [rising, partial curve] |

Reformatted: entries from further up.
SMILES	cell number change	AC50 [1]	AC50 [2]
CCC(C(=O)Nc1cccnc1)n1c(=O)[nH]c2ccccc2c1=O (stereo unspecified)	–	–	29.1 µM [falling, single point]
CCCN1CCc2nc(SCC(=O)Nc3ccc(C)c(Cl)c3)[nH]c(=O)c2C1	-2.59%	–	29.1 µM [falling, single point]

The list goes on:

| SMILES | cell number change | AC50 [1] | AC50 [2] |
| --- | --- | --- | --- |
| OCCn1c(CSc2nc3ccccc3n2CCO)nc2ccccc21 | 7.29% | – | 0.00461 µM [rising, full curve, poor fit] |
| CCc1ccc2c(c1)[C@H]1OCC[C@H]1[C@@H](c1cccs1)N2 | – | – | 6.51 µM [rising, single point] |
| COc1ccc(OCCOc2ccc(S(=O)(=O)N3CCCC3)cc2C(N)=O)cc1 | -8.27% | – | 1.03 µM [rising, full curve] |
| O=C(O)CN1C(=O)c2ccc(Oc3ccc([N+](=O)[O-])cc3)cc2C1=O | -1.06% | – | 29.1 µM [rising, single point] |
| CS(=O)(=O)N(CC(=O)N/N=C/c1cc([N+](=O)[O-])ccc1Cl)c1ccccc1 | 19.2% | – | 1.84 µM [rising, partial curve] |
| CCOC(=O)N1CCN(C(=O)COC(=O)c2cc(Cl)c(O)c(Cl)c2)CC1 | 33.1% | – | 14.6 µM [rising, single point] |
| CC(=O)c1ccc(-n2cc(-c3ccc(C(C)(C)C)cc3)[n+]3c2SCCC3)cc1 | -156% | 29.1 µM [falling, single point] | 23.1 µM [falling, single point] |
| CC1=CCC2C(=O)N(c3cccc(C(=O)Nc4ccccc4Cl)c3)C(=O)C2C1 (stereo unspecified) | -32.1% | – | 35.5 µM [falling, single point] |
| Cn1c(CCNC(=O)c2ccccc2)nc2cc(NC(=O)c3ccco3)ccc21 | 21.8% | – | 6.51 µM [rising, partial curve, poor fit] |
| CCN1CCN(C(=O)c2ccc3c(=O)n(CCc4ccccc4)c(=O)[nH]c3c2)CC1 | 7.21% | – | – |
| Nc1nc(Nc2ccccc2)nc(NCc2ccccc2)c1[N+](=O)[O-] | -36.1% | – | 32.6 µM [falling, partial curve, poor fit] |
| O=C(Nc1ccccc1N1CCCC1)C1CCN(S(=O)(=O)c2ccc(F)cc2)CC1 | 8.64% | – | 16.4 µM [rising, single point] |
| CCC(C)NC(=O)CN(C1CCCCC1)S(C)(=O)=O (stereo unspecified) | -65.9% | 2.31 µM [falling, full curve] | 2.06 µM [falling, full curve, poor fit] |
| Cc1ccc(NC(=O)N2CCN(C)CC2)cc1NC(=O)N1CCN(C)CC1 | -19.9% | 0.00461 µM [falling, full curve, poor fit] | – |
| O=C(Nc1ccccc1)N1CCC(n2c(=O)[nH]c3ccccc32)CC1 | -7.56% | – | – |
| COc1ccc(C(=O)Nc2nc3ccccc3c(=O)[nH]2)cc1 | 57.6% | 1.16 µM [rising, full curve] | 3.26 µM [rising, partial curve] |
| COc1ccc(Cl)cc1NC(=S)NCc1cccnc1 | -10.1% | – | – |
| Cc1ccc(NC(=O)CN2CCN(Cc3ccccc3)CC2)cc1F | 13.5% | 2.59 µM [rising, partial curve, poor fit] | 6.51 µM [rising, partial curve] |
